# Measured values reported in the supplement of paper PMC10338343.
# ± gives the standard deviation. The entries are a selection whose mix differs from that of the whole data set. The uncertainty is large for many entries.
# Tested on: EfPiwi piRISC loaded with piRNA #1 (26 nt)
# Assay: pre-steady-state target cleavage rate (min^-1); guide: piRNA #1 5'p-UGAGGUAGUAGGUUGUAUAGUAUCCA; MIWI and MILI are mouse PIWI proteins and EfPiwi is from a freshwater sponge; tags in brackets are library labels; higher = faster piRNA-guided slicing of the target
# Settings: auxiliary factor: 500 nM Ephydatia muelleri Gtsf1
# Procedure, shortened: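 A burst-and-steady-state fit was used to obtain the pre-steady-state cleavage rate. The input data were sequencing reads of uncleaved targets, normalised to depth and to weakly complementary targets, from a […] transcribed, DNA-blocked target RNA library mixed with 1 nM active affinity-purified piRISC holding one synthetic guide, with or without 500 nM GTSF1 partner protein, in HEPES–potassium acetate buffer at 33 °C for 0–8 or 0–960 min. Three trials were pooled and k3 was capped at 0.0001 min^-1.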
row,Sequence,pre-steady-state target cleavage rate
1,GGAGUGGAUACUAUUCAACCUACUUCCUCA,0.00229 ± 0.0023
2,GGAGACCACACUAUACAACCUACUACCUCA,0.0344 ± 0.015
3,GGAGACCUAUGUAUUGAACCUACUACCUCA,0.0012 ± 0.0062
4,GGAGACCUAACUAUACAACGUACUACGUCA,0.00291 ± 0.0026
5,GGAGACGAUUACUAUACAACCUACUACCUCA,0.0159 ± 0.0066
6,GGAGACCUAUGAUAUCAAGCCUACUACCUCA,0.000637 ± 0.0088
7,GGAGAGGAUACUAUACAAGCUAGUACCUCA,0.00137 ± 0.0032
8,GGAGACCUUACUAUACAACCUACCUACCUCA,0.0019 ± 0.0043
9,GGAGACCUUACAUAUACAACCUACUACCUCA,0.00546 ± 0.0041
10,GGAGAGGAUACUACACAACCUACUACCUCA,0.00871 ± 0.004
11,GGAGACCAUACUAUACAACCUAGUACCACA,0.00199 ± 0.0028
12,GGAGACCAUACUAUACAUGGUACUACCUCA,0.000473 ± 0.0056
13,GGAGACCUAUGUAUACAACCUCACUACCUCA,0.000343 ± 0.019
14,GGAGAGGAUACUAUACAACCUAGCUACCUCA,0.0038 ± 0.0017
15,GGAGACCUAUCUAUACAACCUACUACCUGCA,0.00393 ± 0.0041
16,GGAGACCUAUGAUAUGUUCCUACUACGCUCA,0.000172 ± 0.028

# Individual results from the list.
# pre-steady-state target cleavage rate, GGAGUGGAUACUAUUCAACCUACUUCCUCA reads 0.00229 ± 0.0023
# pre-steady-state target cleavage rate, GGAGAGGAUACUAUACAAGCUAGUACCUCA reads 0.00137 ± 0.0032
